Test results as given in PubChem BioAssay AID540275 (National Center for Advancing Translational Sciences (NCATS), 2011).
Out of some 320,000 compounds screened, about 620 (0.19%) were called active. Inconclusive results, whose numbers are uncertain, are shown with a selection of clear calls. Cut-off read from the data, not from the text of the source: active = activation above about 80%; inconclusive = between about 30% and that limit; inactive = weaker than that.

Chains of the proteins cited; added tags and fusions are not shown.
UniProt Q8NER1, whole entry, looked up: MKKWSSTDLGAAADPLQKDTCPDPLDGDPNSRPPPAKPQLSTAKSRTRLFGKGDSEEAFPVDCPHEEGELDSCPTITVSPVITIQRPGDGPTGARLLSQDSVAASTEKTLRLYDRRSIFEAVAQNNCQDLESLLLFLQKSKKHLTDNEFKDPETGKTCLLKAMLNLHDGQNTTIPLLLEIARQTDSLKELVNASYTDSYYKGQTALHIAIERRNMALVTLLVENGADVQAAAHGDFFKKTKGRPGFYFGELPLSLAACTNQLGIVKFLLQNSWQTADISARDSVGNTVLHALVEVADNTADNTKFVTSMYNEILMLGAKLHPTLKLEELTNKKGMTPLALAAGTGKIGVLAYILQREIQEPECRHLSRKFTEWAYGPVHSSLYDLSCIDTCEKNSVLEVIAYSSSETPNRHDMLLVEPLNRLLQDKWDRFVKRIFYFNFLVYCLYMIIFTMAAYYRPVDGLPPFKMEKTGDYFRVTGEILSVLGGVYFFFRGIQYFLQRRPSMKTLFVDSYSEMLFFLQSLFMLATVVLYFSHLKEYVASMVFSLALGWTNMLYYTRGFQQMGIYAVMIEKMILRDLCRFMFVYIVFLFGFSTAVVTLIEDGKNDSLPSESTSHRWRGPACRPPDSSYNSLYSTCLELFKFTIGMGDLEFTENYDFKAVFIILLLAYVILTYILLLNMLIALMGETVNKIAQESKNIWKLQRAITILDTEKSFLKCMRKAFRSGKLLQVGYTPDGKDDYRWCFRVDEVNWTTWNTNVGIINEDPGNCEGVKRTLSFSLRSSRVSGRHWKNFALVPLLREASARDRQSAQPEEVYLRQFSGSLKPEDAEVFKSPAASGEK

target: Transient receptor potential cation channel subfamily V member 1 (Homo sapiens) (UniProt Q8NER1); experiment: HTS Assay for Compounds that Act as Agonists of the Vanilloid Receptor 1; settings: TRPV1-expressing cells, Fluo-8 calcium influx, agonist mode; at 8.33 µM, active compounds read high; note: 0% is about no effect
Method in brief: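 TRPV1-expressing cells were cultured overnight at 35.5C and loaded with Fluo-8 calcium dye for 40 to 90 min at room temperature. After a 10 s baseline, compound was added and calcium influx was read kinetically for 3 min (ex 480/em 520 nm).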

Structure (SMILES)	activation
O=[N+]([O-])c1cccc(-c2ccc(/C=N/n3c(-c4ccccc4)n[nH]c3=S)o2)c1	inactive: -4.13%
Cc1cc2oc(=O)c3c(c2cc1OC(=O)c1ccco1)CCCC3	inconclusive: 42%
CCCNC(=S)N1CCN(c2nc(C)nc3sc4c(c23)CCCC4)CC1	inconclusive: 42.1%
CCOc1cccc(C(=O)Nc2ccncc2)c1	inconclusive: 41.7%
COc1ccc(CNC(=O)COc2ccc(S(=O)(=O)N3CCCCC3)cc2)cc1	inactive: 24.1%
O=C(N/N=C\c1c(O)ccc2ccccc12)c1cncc(Br)c1	inconclusive: 62.8%
COC(=O)C1=C(C)N(c2ccc(F)cc2)/C(=C/c2ccc(O)cc2)C1=O	inactive: 7.36%
COc1cc(OC)c2c(-c3ccccc3)cc(=O)oc2c1C(CC(=O)N1CCOCC1)c1ccc2c(c1)OCO2 (stereo unspecified)	inactive: 3.42%
Cc1ccc(NC(=O)COC(=O)CC2CCCC2)cc1Cl	inconclusive: 42.4%
Clc1cc2c(c(Cn3cnc4ccccc43)c1)OCOC2	inactive: 2.42%
CCCOC(=O)c1ccc(Oc2c(-c3ccc(OC)cc3O)n[nH]c2C)cc1	inconclusive: 30.2%
CC(NC(=S)Nc1ccccc1)C1COc2ccccc2O1 (stereo unspecified)	inconclusive: 58.9%
N#Cc1c(/N=C/N2CCOCC2)sc2c1CCCCC2	inconclusive: 45.5%
CCN1C(=O)/C(=C/c2c(C)nn(C)c2C)SC1=S	inconclusive: 39.8%
COC(=O)/C(=N/Nc1cccc(C)c1)N1CCCc2ccccc21	inconclusive: 34.5%
CN(Cc1ccccc1)C(=O)C(C(=O)c1ccc(F)cc1)n1cc(Cl)ccc1=O (stereo unspecified)	inconclusive: 37.9%
COCCN(Cc1ccccc1)C(=O)c1cccc(S(=O)(=O)N2CCN(c3ccccc3)CC2)c1	inconclusive: 35.5%
CC1(C)Cc2cccc(OCC(=O)NCc3ccc(F)cc3)c2O1	inconclusive: 42.8%
COc1cccc(NC(=O)Nc2ccncc2)c1	inconclusive: 53.8%
O=C(Nc1ccc(Br)cc1)/C(=C/c1cccc([N+](=O)[O-])c1)NC(=O)C1CCCCC1	inactive: 2.08%
Cc1nn(Cc2noc(C(=O)NCc3ccc4c(c3)OCO4)n2)c(C)c1Br	inconclusive: 34.9%
Brc1ccc2ncnc(Nc3ccc(N4CCOCC4)cc3)c2c1	inactive: 0.892%
COc1ccc(C(CC(=O)c2ccc(O)cc2)S(=O)(=O)c2ccc(C)cc2)cc1 (stereo unspecified)	inconclusive: 39.3%

Structure (SMILES)	activation
Cc1cc(NC(=O)Cc2ccccc2)nc2c1c(=O)oc1ccccc12	inconclusive: 38%
O=C(N/N=C/c1cc(Br)cc([N+](=O)[O-])c1O)c1ccc(NC(=O)c2ccc(F)cc2)cc1	inconclusive: 45.7%
Cc1ccc(NC(=O)c2ccc(Cl)nc2)cc1	inconclusive: 58%
Cc1ccc(NC(=O)COC(=O)CCC(=O)c2cccs2)cc1	inconclusive: 34.6%
O=C(N/N=C/c1ccc([N+](=O)[O-])s1)c1ccccc1	inactive: -3.46%
COc1ccccc1-c1nc(C#N)c(N2CCN(Cc3ccccc3)CC2)o1	inconclusive: 74.7%
COC(=O)c1[nH]c2cc(OC)ccc2c1NC(=O)c1c(F)cccc1F	inconclusive: 30.1%
O=C(NCCc1ccccc1)c1cccc2c1C(=O)N(C1CCCCC1)C2	inconclusive: 33.4%
CN(CC1CCOCC1)C(=O)CC1C(=O)NCCN1Cc1cccc(C(F)(F)F)c1 (stereo unspecified)	inactive: 8.51%
CCc1cc2c(-c3ccccc3)cc(=O)oc2cc1OCC(C)=O	inconclusive: 37.4%
N#Cc1cc(-c2ccccc2)nc(N2CCNCC2)n1	inactive: 1.79%
O=C(OCn1ncc(Br)c(Br)c1=O)c1ccc(F)cc1	inactive: -2.04%
Cc1cc(NC(=O)c2ccco2)sc1C	inconclusive: 45.5%
CCN(CC(=O)Nc1cccc(C(C)=O)c1)S(=O)(=O)c1ccc(C)cc1	inconclusive: 33.3%
COc1cccc2[nH]c3c(Cl)ncnc3c12	inactive: -4.96%
Cc1nc(-c2cccc(NC(=O)C(C)Oc3ccccc3)c2)cs1 (stereo unspecified)	inconclusive: 30.7%
Cc1cc2oc(=O)cc(CN(C)Cc3cccc(F)c3)c2cc1C	inconclusive: 53.5%
CCCS(=O)(=O)c1c(S(=O)(=O)CCC)c2cc(CC)ccn2c1C(=O)OC	inconclusive: 45.1%
COCCCn1c(=O)/c(=C\c2ccccc2OC(F)F)s/c1=C(/C#N)C(=O)N1CCOCC1	inconclusive: 67.8%
Cc1ccc(N2CCN(S(=O)(=O)N3CCCCC3)CC2)c(C)c1	inconclusive: 34.3%
CSCCC(NC(=O)c1ccccc1Cl)C(=O)Nc1ccncc1 (stereo unspecified)	inactive: -3.28%
COc1ccccc1NC(=O)NCCc1ccccc1	inconclusive: 40.4%
CCNS(=O)(=O)c1ccc(C(=O)Nc2ccccc2)cc1	inconclusive: 58.8%

Structure (SMILES)	activation
C=CCn1c(-c2csc(-c3ccc(OC)c(OC)c3)n2)n[nH]c1=S	inactive: 0.731%
COc1ccc(NC(=S)NC2CCN(Cc3ccccc3)CC2)cc1OC	inconclusive: 40.2%
CN1CCSc2ccc(C(=O)Nc3cc(F)ccc3F)cc21	inconclusive: 39.6%
Cc1ccc(CNC(=O)Nc2ccc(C)cc2)cc1	inconclusive: 32.1%
CC(=O)Nc1ccc(NC(=O)C2CC(=O)N(c3ccccc3Cl)C2)cc1 (stereo unspecified)	inactive: -11.5%
COc1ccccc1C1CC(=O)Nc2cc(C)c(C)cc21 (stereo unspecified)	inconclusive: 43.5%
CCCNC(=O)CSC1=N/C(=C/c2ccc(F)cc2)C(=O)N1CC	inconclusive: 41.6%
N#Cc1nc(-c2ccccc2Cl)oc1NCc1ccco1	inconclusive: 36%
CC(C)(C)C(=O)c1cnc(Nc2ccccc2Cl)s1	inconclusive: 43.1%
O=C(COc1ccc(Cl)cc1)Nc1ccc2c(c1)OCO2	inconclusive: 34.7%
CCC(=O)N1CCC2(CC1)Oc1ccc(Cl)cc1C(=O)C21CC(c2ccccc2)=NO1 (stereo unspecified)	inconclusive: 31.2%
CN1C[C@@H]2C(c3ccc(C(F)(F)F)cc3)C3(c4cccnc4)CC2(C3)[C@H]1c1ccccc1 (stereo partly specified)	inconclusive: 41%
COc1ccc(CNC(=O)CN(C)S(=O)(=O)c2ccc3c(c2)OCCO3)cc1OC	inactive: 11.2%
Cc1cc(C(=O)CCl)c(C)n1-c1ccon1	inactive: 2.82%
Cc1csc(Nc2cccc3ccccc23)n1	inactive: 0.208%
CCc1ccc(/C=C2/SC(N3CCOCC3)=NC2=O)cc1	active: 84.8%
O=C1CSC(c2nn(-c3ccccc3)cc2-c2cc3ccccc3oc2=O)N1Cc1ccco1 (stereo unspecified)	inactive: 15.8%
CS(=O)c1ccccc1COC(=O)Nc1ccc(Cl)cc1 (stereo unspecified)	inconclusive: 44.8%
COc1ccc(-n2c(CCc3ccccc3)nnc2SCC(=O)c2ccccc2)cc1	inconclusive: 42.2%
Cc1cc2ccccc2n1CCNC(=O)C1CCCC1	inconclusive: 54.5%
CC(=O)Nc1ccc(NC(=O)/C=C/c2ccc(Cl)cc2)cc1	inconclusive: 51.9%
Cc1nc(CSc2ccc(Cl)cc2)cc(N2CCOCC2)n1	inconclusive: 35%
CN(Cc1ccccc1)c1ncnc2sccc12	inactive: 6.93%

Four neighbouring entries out of the list so far, for reference:
Structure (SMILES)	activation
Cc1cc(NC(=O)c2ccco2)sc1C	inconclusive: 45.5%
CCN(CC(=O)Nc1cccc(C(C)=O)c1)S(=O)(=O)c1ccc(C)cc1	inconclusive: 33.3%
COc1cccc2[nH]c3c(Cl)ncnc3c12	inactive: -4.96%
Cc1nc(-c2cccc(NC(=O)C(C)Oc3ccccc3)c2)cs1 (stereo unspecified)	inconclusive: 30.7%

Further compounds.

Structure (SMILES)	activation
CCOC(=O)/C(C(=Nc1ccccc1)Nc1ccccc1)=C(\C)O	inactive: 24.8%
O=C(Nc1ccccc1C(F)(F)F)c1cc2ncc(CCCl)cn2n1	inactive: 17%
Cc1nc2cc(-c3cccc(F)c3)nn2c(N2CCN(C(=O)c3ccco3)CC2)c1C	active: 81.2%
CCOC(=O)c1ccc(NC(=S)N(CCCN2CCCC(C)C2)Cc2cccs2)cc1 (stereo unspecified)	inactive: 2.61%
S=C(NCCSCc1c(Cl)cccc1Cl)Nc1ccccc1	inconclusive: 66.4%
COc1ccc2nc(SCC(=O)NC(C)c3ccccc3)[nH]c2c1 (stereo unspecified)	inconclusive: 46.9%
C=CCOc1ccc(C2=NOC(C(=O)Nc3ccc4c(c3)OCCO4)C2)cc1 (stereo unspecified)	inconclusive: 34.1%
O=C(CC12CC3CC(CC(C3)C1)C2)Nc1ccc2c(c1)COC2=O	inconclusive: 48.3%
Cc1ccc(C(=O)Nc2ccc3c(c2)OCO3)cc1S(=O)(=O)N1CCOCC1	inconclusive: 49.6%
O=C(CSc1c[nH]c2ccccc12)NCc1ccc2c(c1)OCO2	inconclusive: 65.2%
Cc1ccc(C2c3c(oc4ccccc4c3=O)C(=O)N2c2nnc(C(C)C)s2)o1 (stereo unspecified)	inconclusive: 50.2%
CC1(C)CC(=O)c2sc(NC(=O)CCS(=O)(=O)c3ccccc3)nc2C1	inactive: -1.98%
CCOCCn1c(SCCCc2ccccc2)nc2c1c(=O)[nH]c(=O)n2C	inconclusive: 30.3%
CC[C@H](C)C(=O)O[C@H]1CCC=C2C=C[C@H](C)[C@H](CC[C@@H]3C[C@@H](O)CC(=O)O3)[C@H]21	inconclusive: 47.6%
CC(C)(C)c1ccc(NC(=S)NCc2cccnc2)cc1	active: 86.4%
CCCN(CCC)C(=O)Nc1cc(Cl)ccc1OC	inconclusive: 47.2%
COc1cc(OC)c(N(C)S(=O)(=O)c2cccc(C(=O)OCc3c(C)noc3C)c2)cc1Cl	inactive: 2.27%
CCCCCCN=C1CC(C)(C)CC(=O)/C1=C(/O)CCC	inconclusive: 36%
Fc1ccccc1Nc1nc(-c2ccncc2)nc2ccccc12	inconclusive: 40.2%
C=CCn1c(=O)c2c(nc3n2CC(C)CN3c2cccc(OC)c2)n(C)c1=O (stereo unspecified)	inconclusive: 30.6%
CC(Sc1nc2cc([N+](=O)[O-])ccc2n1-c1ccc(F)cc1)C(=O)NCc1ccc2c(c1)OCO2 (stereo unspecified)	inconclusive: 77.2%
CC(C)(C)OC(=O)N[C@H](C(=O)OC(C)(C)C)c1ccc(Br)cc1	inconclusive: 40.8%
